# Values scatter widely in this assay.
# B1: human tRNA-Pro; a variant is named by its letters at N, in order (parent)
# chain: GGCTCGTTGGTCTAGNGGTATGATTCTCGCTTAGGGTGCGAGAGGTCCCGGGTTCNNATCCCGGACGAGCCC
# What was measured:
# [1] = variants of: B1; assay: tRNA Pol-III promoter activity, log2 (circRNA frequency / plasmid DNA frequency) (log2 ratio); higher = stronger promoter activity; conditions: HEK293T; construct: no Pol-II promoter ((-)CMV library)
# [2] = variants of: B1; assay: tRNA 3' processing efficiency (processed reads / all reads, maximum-likelihood estimate) (fraction); higher = more efficient 3' processing; conditions: HEK293T; construct: no Pol-II promoter ((-)CMV library)
# [3] = variants of: B1; assay: tRNA 5' processing efficiency (processed reads / all reads, maximum-likelihood estimate) (fraction); higher = more efficient 5' processing; conditions: HEK293T; construct: CMV Pol-II promoter ((+)CMV library, decapped)
Variant,tRNA Pol-III promoter activity (log2) [1],tRNA 3' processing efficiency [2],tRNA 5' processing efficiency [3]
GAA A14G A58T T59C,3.02,0.25,–
GAA A14G G18A T19A,3.13,0.25,–
TAA A14G,-0.314,0.53,–
TAA A14T,-2.2,0.5,–
GAA A14G G18T A20T T53A,6.1,0.22,–
GAA A14T G50A,2.77,0.25,–
GAA A14G G17A A58T,1.98,0.14,–
GAA A14T G15T T59G,2.27,0.2,–
GAA A14C T53C A58G,5.03,0.17,–
GAA A14C G18A A58G,4.43,0.29,–
GAA A14C G18A A58T,4.03,0.14,–
GAA A14G G18A A20T,3.94,0.25,–
GAA A14T T19C T59C,3.45,0.33,–
GAA A14T T19C T59G,6.25,0.1,–
GAA A14C G15C T53A,4.84,0.14,–
GAA A14T T19C T54C,3.94,0.5,–
AAA A14T T19G A58T,5.53,0.5,–
GAA A14G A20G T59C,3.61,0.29,0.25
GAA A14C G18T T54A,6.75,0.57,–

# No new results follow: entries from further up.
Variant,tRNA Pol-III promoter activity (log2) [1],tRNA 3' processing efficiency [2],tRNA 5' processing efficiency [3]
GAA A14G G18A T19A,3.13,0.25,–
TAA A14G,-0.314,0.53,–
TAA A14T,-2.2,0.5,–
GAA A14G G18T A20T T53A,6.1,0.22,–
GAA A14T G50A,2.77,0.25,–
GAA A14G G17A A58T,1.98,0.14,–
GAA A14T G15T T59G,2.27,0.2,–
GAA A14C T53C A58G,5.03,0.17,–
GAA A14C G18A A58G,4.43,0.29,–
GAA A14C G18A A58T,4.03,0.14,–
GAA A14G G18A A20T,3.94,0.25,–
GAA A14T T19C T59C,3.45,0.33,–
GAA A14T T19C T59G,6.25,0.1,–
GAA A14C G15C T53A,4.84,0.14,–

# (continued)

Variant,tRNA Pol-III promoter activity (log2) [1],tRNA 3' processing efficiency [2],tRNA 5' processing efficiency [3]
GAA A14G G50T,5.26,0.2,–
GAA A14T G18A A20T,2.39,0.13,–
AAA A14T A20C A58G,5.94,0.25,–
GAA A14C G15T G18A T54A,2.72,0.67,–
GAA A14C G15T G18A A58T,6.75,0.57,–
GAA A14G G17T T59G,3.44,0.4,–
GAA A14C T53G,2.33,0.67,–
GAA A14C T53A,1.5,0.31,–
GAA A14C T53C,2.25,0.63,–
GAA A14C G15C A20T,5.53,0.67,–
CAA A14G C55T A58T,5.03,0.25,–
GAA A14C G18T T59C,5.63,0.69,–
GAA A14G A20T T53G T59G,6.94,0.62,–
GAA A14G A20C T53G,5.74,0.57,–
AAA A14C T59G,4.39,0.73,–
GAA A14T T19G A58G,3.33,0.22,–
GAA A14T T19G A58T,3.13,0.25,–
GAA A14G G18A T53C,5.74,0.57,0.25
GAA A14T A20T A58G,2.71,0.25,–

Variant,tRNA Pol-III promoter activity (log2) [1],tRNA 3' processing efficiency [2],tRNA 5' processing efficiency [3]
GAA A14T A20T A58T,1.8,0.4,–
TAA A14G A20G T54G A58T,3.53,0.33,–
CAA A14T G17A,3.03,0.29,–
GAA A14G A20T A58C,2.8,0.2,–
GAA A14G T19A,-1.21,0.25,0.33
GAA A14G T19G,-0.529,0.32,–
TAA A14T G15C T19G,4.45,0.5,–
GAA A14C G18A T19C,4.69,0.23,–
GAA A14C T53A T59A,2.94,0.25,–
GAA A14T G18A,-0.387,0.32,0.2
GAA A14T G18T A20G T53A,3.93,0.25,–
GAA A14C G18A A20C,4.51,0.33,–
GAA A14C G18A A20G,3.93,0.29,–
AAA A14T T53G,4.51,0.33,0.4
GAA A14G A20T,2.07,0.21,–
GAA A14G A20G,0.273,0.67,–
GAA A14G T53A T59G,3.19,0.4,–
GAA A14T T53C T59A,5.49,0.73,–

# Reference: the supplement of paper PMC6445147
